The target in test [1] is cLUC-SPT4-2 (Arabidopsis thaliana) (UniProt Q94C60). Description: split reporter.
Test [2] has as its target T1, SPT4-2-GFP (Arabidopsis thaliana) (UniProt Q94C60).
T1 sequence: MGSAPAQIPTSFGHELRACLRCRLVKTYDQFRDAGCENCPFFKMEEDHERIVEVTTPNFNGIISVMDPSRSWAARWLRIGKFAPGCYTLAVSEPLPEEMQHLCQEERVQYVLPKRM
Kind of test: co-IP.

These are yes or no findings as the source states them, for the method shown. Binding seen in cells or lysates may run through a third protein. Some results given as binding are weak or reduced against the parent protein; the word gives no strength. For some assays here: Tags and fused reporters may be left off the sequences shown.

As for ELP1-nLUC (from UniProt Q9FNA4 1-1319), the binding entry in test [1] was “binds”.

B1: native ELP1 (protein, UniProt Q9FNA4 1-1319)
chain: MKNLKLFSEVPQNIQLHSTEEVVQFAAYDIDQSRLFFASSANFVYALQLSSFQNESAGAKSAMPVEVCSIDIEPGDFITAFDYLAEKESLLIGTSHGLLLVHNVESDVTELVGNIEGGVKCISPNPTGDLLGLITGLGQLLVMTYDWALMYEKALGEVPEGGYVRETNDLSVNCGGISISWRGDGKYFATMGEVYESGCMSKKIKIWESDSGALQSSSETKEFTQGILEWMPSGAKIAAVYKRKSDDSSPSIAFFERNGLERSSFRIGEPEDATESCENLKWNSASDLLAGVVSCKTYDAIRVWFFSNNHWYLKQEIRYPREAGVTVMWDPTKPLQLICWTLSGQVSVRHFMWVTAVMEDSTAFVIDNSKILVTPLSLSLMPPPMYLFSLSFSSAVRDIAYYSRNSKNCLAVFLSDGNLSFVEFPAPNTWEDLEGKDFSVEISDCKTALGSFVHLLWLDVHSLLCVSAYGSSHNKCLSSGGYDTELHGSYLQEVEVVCHEDHVPDQVTCSGFKASITFQTLLESPVLALAWNPSKRDSAFVEFEGGKVLGYASRSEIMETRSSDDSVCFPSTCPWVRVAQVDASGVHKPLICGLDDMGRLSINGKNLCNNCSSFSFYSELANEVVTHLIILTKQDFLFIVDTKDVLNGDVALGNVFFVIDGRRRDEENMSYVNIWERGAKVIGVLNGDEAAVILQTMRGNLECIYPRKLVLSSITNALAQQRFKDAFNLVRRHRIDFNVIVDLYGWQAFLQSAVAFVEQVNNLNHVTEFVCAMKNEDVTETLYKKFSFSKKGDEVFRVKDSCSNKVSSVLQAIRKALEEHIPESPSRELCILTTLARSDPPAIEESLLRIKSVREMELLNSSDDIRKKSCPSAEEALKHLLWLLDSEAVFEAALGLYDLNLAAIVALNSQRDPKEFLPYLQELEKMPESLMHFKIDIKLQRFDSALRNIVSAGVGYFPDCMNLIKKNPQLFPLGLLLITDPEKKLVVLEAWADHLIDEKRFEDAATTYLCCCKLEKASKAYRECGDWSGVLRVGALMKLGKDEILKLAYELCEEVNALGKPAEAAKIALEYCSDISGGISLLINAREWEEALRVAFLHTADDRISVVKSSALECASGLVSEFKESIEKVGKYLTRYLAVRQRRLLLAAKLKSEERSVVDLDDDTASEASSNLSGMSAYTLGTRRGSAASVSSSNATSRARDLRRQRKSGKIRAGSAGEEMALVDHLKGMRMTDGGKRELKSLLICLVTLGEMESAQKLQQTAENFQVSQVAAVELAHDTVSSESVDEEVYCFERYAQKTRSTARDSDAFSWMLKVFISP
For B1, the binding entry in test [2] is “binds”.

The values are drawn from article doi:10.1101/251603.
